Drawing on patent publication US6653074B1, “Methods for identifying agents which affect cellular morphology, locomotion and death” (Fox Chase Cancer Center, priority 1995, dated 2003), this text covers binding for one molecule.

For the experiment, the target named is T1, p130cas (rat) (UniProt Q63767).
T1 sequence: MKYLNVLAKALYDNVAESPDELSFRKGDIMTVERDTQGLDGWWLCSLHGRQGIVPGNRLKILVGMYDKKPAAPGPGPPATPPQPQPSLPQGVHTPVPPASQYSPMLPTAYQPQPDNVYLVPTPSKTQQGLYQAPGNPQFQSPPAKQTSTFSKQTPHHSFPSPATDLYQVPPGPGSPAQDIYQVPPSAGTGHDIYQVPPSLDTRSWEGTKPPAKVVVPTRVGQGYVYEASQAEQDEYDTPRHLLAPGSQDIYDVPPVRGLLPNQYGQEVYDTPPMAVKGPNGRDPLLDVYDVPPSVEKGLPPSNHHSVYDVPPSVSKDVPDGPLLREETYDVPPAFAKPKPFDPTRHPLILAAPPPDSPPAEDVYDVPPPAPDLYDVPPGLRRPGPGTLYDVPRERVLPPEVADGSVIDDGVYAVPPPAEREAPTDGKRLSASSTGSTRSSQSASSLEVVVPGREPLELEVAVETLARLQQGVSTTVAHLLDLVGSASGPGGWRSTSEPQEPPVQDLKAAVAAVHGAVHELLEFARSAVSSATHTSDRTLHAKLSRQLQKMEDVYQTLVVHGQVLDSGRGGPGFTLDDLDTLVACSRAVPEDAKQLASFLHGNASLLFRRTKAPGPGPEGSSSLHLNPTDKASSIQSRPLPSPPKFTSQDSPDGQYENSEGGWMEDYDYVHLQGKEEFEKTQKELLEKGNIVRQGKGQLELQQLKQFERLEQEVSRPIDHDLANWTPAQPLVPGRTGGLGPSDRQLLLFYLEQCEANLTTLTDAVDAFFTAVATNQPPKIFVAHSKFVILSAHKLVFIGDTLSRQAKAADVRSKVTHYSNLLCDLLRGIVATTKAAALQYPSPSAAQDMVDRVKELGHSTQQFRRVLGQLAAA
Briefly: yeast two-hybrid analysis.

These are yes or no findings as the source states them, for the method shown. Some binding calls cover weakened binding; strength is not graded here.

B1: HEF1 carboxy-terminal domain (other)
chain: IMKQNKMQLEHHQLSQFQLLEQEITKPVENDISKWKPSQSLPTTNSGVSAQDRQLLCFYYDQCETHFISLLNAIDALFSCVSSAQPPRIFVAHSKFVILSAHKLVFIGDTLTRQVTAQDIRNKVMNSSNQLCEQLKTIVMATKMAALHYPSTTALQEMVHQVTDLSRNAQLFKRSLLEMATF
notes: Tested as a two-hybrid fusion; also called C-terminal effector domain; HEF1-Cterm182
For B1, the binding entry is listed as “binds”.
